The other results are listed elsewhere or left out. These are further read-outs of the screen, such as a control signal, another cell line or another target. No call is given for them. Compounds called inactive in the main read-out are mostly missing here. Words in brackets tell the shape of the fitted curve; partial curves, single points and poor fits give uncertain potencies.
Assay: qHTS Assay for Lipid Storage Modulators in Drosophila S3 Cells;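 as to cell number change: cells counted by Cell Tracker Red CMTPX staining in the red channel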
Conditions: BODIPY lipid droplet fluorescence, 18-24 h; for cell number change: measured here: cell count max response, cells fed with added oleic acid
How it was run: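 Laser-scanning cytometry quantifies lipid droplet accumulation (500–530 nm total intensity; droplet/cell object ratio) in oleic acid-fed (400 uM added) Drosophila S3 cells treated with a concentration series. 20 uM Triacsin C defined 100% inhibition.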

[1] = measured here: cell number channel AC50, cells fed with added oleic acid
[2] = measured here: lipid fluorescence (Fed channel) AC50, cells fed with added oleic acid

Row | Structure (SMILES) | cell number change [%] | AC50 [1] | AC50 [2]
1 | Cc1cc(NC(=O)COC(=O)C2CC2)ccc1Br | -39.1 | 23.1 µM [falling, single point] | 0.58 µM [falling, single point]
2 | COC(=O)/C=C1\N/C(=N\c2nc(C)cc(C)n2)N(c2ccc(C)cc2)C1=O | 20.1 |  | 0.461 µM [rising, full curve, poor fit]
3 | COc1cccc(CNC(=O)CCC2CCCN(C(=O)c3cc(C4CC4)[nH]n3)C2)c1 (configuration not stated) | -31.4 |  | 
4 | CC1=NNC(=O)C1CCC(=O)N/N=C/c1ccco1 (configuration not stated) |  | 6.51 µM [falling, single point] | 6.51 µM [falling, single point]
5 | Cc1cc(N(C)C)c(C#N)c(NCc2ccccc2)n1 | -30.8 | 18.4 µM [falling, single point] | 
6 | CCCOc1ccc2c(CC)cc(=O)oc2c1C | 28.3 | 6.51 µM [rising, partial curve, poor fit] | 
7 | COc1cccc(NC(=O)CCSc2nnc3scc(-c4ccccc4)n23)c1 | 30.4 | 32.6 µM [rising, single point] | 13 µM [rising, partial curve]
8 | COc1ccc(CC(=O)Oc2ccccc2Cl)cc1S(=O)(=O)N1CCOCC1 | -14.5 |  | 
9 | CC1=C(C(=O)OCCOc2ccccc2)C(c2ccc(C)o2)C2=C(CC(C)(C)CC2=O)N1 (configuration not stated) | -8.25 |  | 14.6 µM [falling, partial curve, poor fit]
10 | CCn1cnc2c1c(=O)n(CC(=O)NCC(C)C)c(=O)n2Cc1ccccc1 | -52.8 | 11.6 µM [falling, partial curve] | 8.2 µM [falling, partial curve]
11 | O=C(N/N=C/c1ccc(Br)s1)c1ccccn1 | -13.6 | 2.06 µM [rising, partial curve] | 2.06 µM [rising, partial curve]
12 | O=C(CN1C(=O)NC2(CCCC2)C1=O)N1CCN(C(=O)c2ccco2)CC1 | 31.1 | 0.00461 µM [rising, full curve, poor fit] | 
13 | CC(=O)c1ccc(NC(=S)N2c3ccccc3CC2C)cc1 (configuration not stated) | 22.5 |  | 1.3 µM [rising, full curve, poor fit]
14 | COc1ccc(N2C(=O)C3C4C=CC(C4)C3C2=O)c(OC)c1 (configuration not stated) | -16.3 |  | 
15 | Cc1ccc(Cn2ccc(NC(=O)c3nc4ncccn4n3)n2)cc1 | 10.3 | 6.51 µM [rising, single point] | 18.4 µM [rising, single point]
16 | CC1CN(C(=O)CCC(=O)NCCCN2CCN(Cc3ccccc3)CC2)c2cc(Cl)ccc2O1 (configuration not stated) | 60.8 | 29.1 µM [rising, single point] | 
17 | Cc1nc(Cl)sc1C(=O)NC(C)c1ccc(Cl)cc1 (configuration not stated) | -6.84 |  | 29.1 µM [falling, partial curve, poor fit]
18 | COc1ccc2c(c1)C(=O)C(=O)N2CC1COc2ccccc2O1 (configuration not stated) | -19.9 |  | 29.1 µM [falling, single point]
19 | CSc1cccc(NC(=O)COc2cccc3ccccc23)c1 |  |  | 6.51 µM [rising, single point]
20 | CC(=O)CCc1ccc(OCC(O)CNCCOc2ccc(C)cc2)cc1 (configuration not stated) | 19.8 |  | 29.1 µM [rising, single point]

Row | Structure (SMILES) | cell number change [%] | AC50 [1] | AC50 [2]
21 | Cc1cccc(OCC(=O)N2CCCc3ccccc32)c1 | 30.7 | 10.3 µM [rising, single point] | 0.00461 µM [falling, full curve, poor fit]
22 | O=C(CCn1c(=S)[nH]c2ccccc2c1=O)N1CCCCC1 | -62.4 | 18.4 µM [falling, single point] | 7.31 µM [falling, partial curve]
23 | Cc1c(Cl)cccc1NC(=S)NCc1cccs1 |  | 0.731 µM [falling, single point] | 
24 | CC(=O)C1C(=O)c2c(cccc2[N+](=O)[O-])C1=Nc1ccccc1C (configuration not stated) | -18.5 | 4.11 µM [rising, partial curve] | 3.26 µM [rising, partial curve]
25 | CN(C)S(=O)(=O)c1ccc(NC(=O)CN2CCN(c3ccccn3)CC2)cc1 | -5.67 |  | 0.13 µM [rising, full curve, poor fit]
26 | N#Cc1ccc(/C=C2\CCCCn3c2nc2cc(C(=O)O)ccc2c3=O)cc1 | 3.95 |  | 1.12 µM [rising, partial curve]
27 | CN(C)CCNc1nc2sc3c(c2c(=O)n1-c1ccccc1)CCCCC3 | 17.3 | 0.517 µM [falling, full curve, poor fit] | 
28 | O=c1c2ccccc2c(=O)n(Cc2ccccc2)n1Cc1ccccc1 | -2.2 |  | 3.26 µM [rising, partial curve]
29 | CCn1c(SCC(=O)Nc2nc(C)cs2)nnc1-c1ccncc1 | 28.2 |  | 4.11 µM [rising, partial curve, poor fit]
30 | Cc1cc(=O)oc2cc(OCC(=O)Nc3ccccc3C(=O)O)ccc12 | 7.69 |  | 
31 | COc1ccc(NC(=O)c2cccc3cccnc23)cc1S(N)(=O)=O | 193 | 18.4 µM [rising, single point] | 
32 | COC(=O)c1cc2occc2n1Cc1c(F)cccc1Cl | -17.7 |  | 
33 | Cc1ccc(NC2SC(=O)N(Cc3cccc(C(=O)O)c3)C2=O)cc1 (configuration not stated) | -4.17 |  | 10.3 µM [falling, partial curve]
34 | CCCn1c(SCC(=O)NC2CCCCC2)nnc1-c1ccco1 | 20 |  | 0.164 µM [falling, full curve, poor fit]
35 | O=C(CSc1nnnn1-c1ccccc1)NC(=O)NCc1ccco1 | 110 | 20.6 µM [rising, single point] | 
36 | O=c1c2c(nc3cc(-c4ccc(Cl)cc4)[nH]n13)CCS2 |  |  | 2.31 µM [rising, single point]
37 | Cc1ccc(-c2c3c(=O)n(C)c(=O)n(C)c3cn2-n2cnnc2)cc1 | -22 |  | 25.9 µM [falling, single point]
38 | NNC(=O)C1CC(O)CN1S(=O)(=O)c1ccc2ccccc2c1 (configuration not stated) | 7.91 |  | 1.3 µM [rising, full curve]
39 | CCOc1ccc(OCCC(=O)OCC(=O)N2CCN(c3ccc(OC)cc3)CC2)cc1 | -5 |  | 
40 | Cc1c(Cl)c(=O)n2c(=O)c(Cl)c(C)n12 | -25.2 | 0.146 µM [falling, partial curve, poor fit] | 0.58 µM [falling, single point]

Row | Structure (SMILES) | cell number change [%] | AC50 [1] | AC50 [2]
41 | CCOC(=O)Cn1nc(C)c2ccccc2c1=O | -23.3 |  | 
42 | Cc1cc(C(=O)CSc2nnc(Nc3ccccc3F)s2)c(C)n1CC1CCCO1 (configuration not stated) | 8.56 |  | 29.1 µM [falling, single point]
43 | O=c1cc(CNc2ccc(Br)cc2)nc2sccn12 |  |  | 10.3 µM [rising, partial curve, poor fit]
44 | CC1(C)CC(=O)C2=C(C1)N(CCN1CCOCC1)C1=C(C(=O)CC(C)(C)C1)C2c1ccc(Cl)c([N+](=O)[O-])c1 | 4.05 | 0.82 µM [falling, single point] | 0.13 µM [rising, full curve, poor fit]
45 | CC(=O)CSc1nc(N(C)C)nc(N(C)C)n1 | 0.65 |  | 0.398 µM [falling, partial curve, poor fit]
46 | CCCC[n+]1ccn(C2=C([O-])c3ccccc3C(=O)/C2=N\S(=O)(=O)c2ccccc2)c1 | -16 |  | 16.4 µM [falling, single point]
47 | COC(=O)c1c(NC(=O)CCCC(=O)O)sc2c1CCCCC2 | 31.4 |  | 25.9 µM [rising, partial curve]
48 | CCOC(=O)CSc1nc2ccccc2c(=O)n1CC1COc2ccccc2O1 (configuration not stated) | -9.51 |  | 
49 | COC(=O)c1cc(S(=O)(=O)Nc2ccsc2C(=O)OC)oc1C | 50.3 | 0.103 µM [rising, partial curve] | 0.291 µM [rising, partial curve]
50 | CC1=C(C(=O)OCC2CCCO2)C(c2coc3ccccc3c2=O)C2=C(CCCC2=O)N1 (configuration not stated) | 17.2 | 0.058 µM [falling, full curve, poor fit] | 0.0517 µM [falling, full curve, poor fit]
51 | CCNc1nc(Oc2ccc(=O)n(-c3ccccc3)n2)nc(N2CCOCC2)n1 | 115 | 18.4 µM [rising, partial curve] | 
52 | Cn1c(=O)c2c(nc(SCCN3CCOCC3)n2Cc2ccc(F)cc2)n(C)c1=O | -11.9 |  | 1.64 µM [rising, partial curve]
53 | Cn1c(SCc2cc(=O)[nH]c3ccccc23)nnc1-c1ccco1 | 18.2 |  | 8.2 µM [rising, partial curve, poor fit]
54 | Cc1cc(=O)n2[nH]c(COc3ccccc3)nc2n1 | -102 | 32.6 µM [falling, partial curve] | 29.1 µM [falling, partial curve]
55 | CC1CCN(c2ccc([N+](=O)[O-])cc2C(=O)N2CCOCC2)CC1 | -18.6 |  | 23.1 µM [falling, partial curve]
56 | Cc1cccc(NC(=O)/C(=C\c2ccc([N+](=O)[O-])o2)NC(=O)c2ccc(Cl)cc2)c1 | -16.1 |  | 8.2 µM [falling, single point]
57 | O=C(NC(=S)NCC1CCCO1)c1ccccc1[N+](=O)[O-] (configuration not stated) | 4.82 |  | 7.31 µM [rising, single point]
58 | Cn1cnnc1SCC(=O)n1c2ccccc2c2ccccc21 | -25.4 | 0.82 µM [falling, full curve, poor fit] | 

Quoted from above: entries 46 to 48
Row | Structure (SMILES) | cell number change [%] | AC50 [1] | AC50 [2]
46 | CCCC[n+]1ccn(C2=C([O-])c3ccccc3C(=O)/C2=N\S(=O)(=O)c2ccccc2)c1 | -16 |  | 16.4 µM [falling, single point]
47 | COC(=O)c1c(NC(=O)CCCC(=O)O)sc2c1CCCCC2 | 31.4 |  | 25.9 µM [rising, partial curve]
48 | CCOC(=O)CSc1nc2ccccc2c(=O)n1CC1COc2ccccc2O1 (configuration not stated) | -9.51 |  | 

From PubChem BioAssay AID2685 (National Center for Advancing Translational Sciences (NCATS), 2010)
